Substrate in the test: COS cell-expressed MEKK1 (holoMEKK1) (UniProt P53349)
As to the kind of experiment: GST fusion protein against COS cell-expressed protein.

The chains behind the UniProt entries cited, without tags or fusion partners. Where a name states a change or a piece, a line headed by the entry shows the natural chain unless it says otherwise.
UniProt P53349: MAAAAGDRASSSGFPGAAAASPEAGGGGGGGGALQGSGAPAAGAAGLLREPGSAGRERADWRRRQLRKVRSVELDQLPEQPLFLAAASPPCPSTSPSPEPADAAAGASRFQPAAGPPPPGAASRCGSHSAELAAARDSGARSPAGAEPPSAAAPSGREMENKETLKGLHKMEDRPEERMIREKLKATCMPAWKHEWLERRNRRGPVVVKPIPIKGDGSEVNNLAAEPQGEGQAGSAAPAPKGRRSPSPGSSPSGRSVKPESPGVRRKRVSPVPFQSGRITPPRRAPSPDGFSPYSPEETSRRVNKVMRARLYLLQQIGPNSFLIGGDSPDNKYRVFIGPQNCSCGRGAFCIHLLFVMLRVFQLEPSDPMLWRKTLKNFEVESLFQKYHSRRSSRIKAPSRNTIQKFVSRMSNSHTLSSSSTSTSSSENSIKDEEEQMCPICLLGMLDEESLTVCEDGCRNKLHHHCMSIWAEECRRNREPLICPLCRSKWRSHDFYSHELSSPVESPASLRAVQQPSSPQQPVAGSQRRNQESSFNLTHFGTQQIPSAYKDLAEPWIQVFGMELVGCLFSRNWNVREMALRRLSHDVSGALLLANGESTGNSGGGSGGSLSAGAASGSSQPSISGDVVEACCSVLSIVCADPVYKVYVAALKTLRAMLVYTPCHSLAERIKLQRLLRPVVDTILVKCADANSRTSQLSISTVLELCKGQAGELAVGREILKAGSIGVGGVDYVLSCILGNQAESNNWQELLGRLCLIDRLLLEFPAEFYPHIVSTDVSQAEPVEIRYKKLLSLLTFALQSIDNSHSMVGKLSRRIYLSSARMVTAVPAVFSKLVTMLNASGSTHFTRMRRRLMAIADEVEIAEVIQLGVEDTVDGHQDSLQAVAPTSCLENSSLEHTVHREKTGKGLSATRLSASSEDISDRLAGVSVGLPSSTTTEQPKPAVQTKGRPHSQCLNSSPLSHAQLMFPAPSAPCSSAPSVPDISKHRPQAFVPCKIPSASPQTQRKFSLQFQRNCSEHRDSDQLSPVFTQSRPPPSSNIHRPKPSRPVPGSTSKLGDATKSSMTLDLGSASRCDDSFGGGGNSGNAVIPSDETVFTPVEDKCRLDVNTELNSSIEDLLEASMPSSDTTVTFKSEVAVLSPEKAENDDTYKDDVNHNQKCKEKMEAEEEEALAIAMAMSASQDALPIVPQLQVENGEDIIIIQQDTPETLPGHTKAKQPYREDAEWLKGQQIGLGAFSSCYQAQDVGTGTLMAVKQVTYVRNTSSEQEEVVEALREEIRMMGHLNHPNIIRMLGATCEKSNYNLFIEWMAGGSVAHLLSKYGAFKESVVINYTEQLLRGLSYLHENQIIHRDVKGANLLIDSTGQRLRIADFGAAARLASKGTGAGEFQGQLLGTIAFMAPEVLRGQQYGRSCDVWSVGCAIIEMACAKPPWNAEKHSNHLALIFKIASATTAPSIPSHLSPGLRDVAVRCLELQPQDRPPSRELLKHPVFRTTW

These are yes or no findings as the source states them, for the method shown. A result given as binding can be weak or reduced; the word gives no strength. Where a sequence is shown, tags or fusion partners need not be part of it.

B1: GST fusion protein of the T cell 14-3-3 isoform (protein, UniProt P27348 1-245, looked up, not shown: a dimerising Fc or GST)
chain: MEKTELIQKAKLAEQAERYDDMATCMKAVTEQGAELSNEERNLLSVAYKNVVGGRRSAWRVISSIEQKTDTSDKKLQLIKDYREKVESELRSICTTVLELLDKYLIANATNPESKVFYLKMKGDYFRYLAEVACGDDRKQTIDNSQGAYQEAFDISKKEMQPTHPIRLGLALNFSVFYYEILNNPELACTLAKTAFDEAIAELDTLNEDSYKDSTLIMQLLRDNLTLWTSDSAGEECDAAEGAEN
On to B1, for which the binding entry is “binds”.

The record behind these values is patent US20020055130A1, “Method and product for regulating apoptosis” (National Jewish Center for Immunology and Respiratory …, priority 1997, published 2002).
